# Test results as given in the supplement of paper PMC10849652.
# Sequences of proteins named here, by UniProt entry; tags and fusion partners are left off. A change or cut given only in a name is not applied to a line headed by its entry.
# UniProt Q9UBS9: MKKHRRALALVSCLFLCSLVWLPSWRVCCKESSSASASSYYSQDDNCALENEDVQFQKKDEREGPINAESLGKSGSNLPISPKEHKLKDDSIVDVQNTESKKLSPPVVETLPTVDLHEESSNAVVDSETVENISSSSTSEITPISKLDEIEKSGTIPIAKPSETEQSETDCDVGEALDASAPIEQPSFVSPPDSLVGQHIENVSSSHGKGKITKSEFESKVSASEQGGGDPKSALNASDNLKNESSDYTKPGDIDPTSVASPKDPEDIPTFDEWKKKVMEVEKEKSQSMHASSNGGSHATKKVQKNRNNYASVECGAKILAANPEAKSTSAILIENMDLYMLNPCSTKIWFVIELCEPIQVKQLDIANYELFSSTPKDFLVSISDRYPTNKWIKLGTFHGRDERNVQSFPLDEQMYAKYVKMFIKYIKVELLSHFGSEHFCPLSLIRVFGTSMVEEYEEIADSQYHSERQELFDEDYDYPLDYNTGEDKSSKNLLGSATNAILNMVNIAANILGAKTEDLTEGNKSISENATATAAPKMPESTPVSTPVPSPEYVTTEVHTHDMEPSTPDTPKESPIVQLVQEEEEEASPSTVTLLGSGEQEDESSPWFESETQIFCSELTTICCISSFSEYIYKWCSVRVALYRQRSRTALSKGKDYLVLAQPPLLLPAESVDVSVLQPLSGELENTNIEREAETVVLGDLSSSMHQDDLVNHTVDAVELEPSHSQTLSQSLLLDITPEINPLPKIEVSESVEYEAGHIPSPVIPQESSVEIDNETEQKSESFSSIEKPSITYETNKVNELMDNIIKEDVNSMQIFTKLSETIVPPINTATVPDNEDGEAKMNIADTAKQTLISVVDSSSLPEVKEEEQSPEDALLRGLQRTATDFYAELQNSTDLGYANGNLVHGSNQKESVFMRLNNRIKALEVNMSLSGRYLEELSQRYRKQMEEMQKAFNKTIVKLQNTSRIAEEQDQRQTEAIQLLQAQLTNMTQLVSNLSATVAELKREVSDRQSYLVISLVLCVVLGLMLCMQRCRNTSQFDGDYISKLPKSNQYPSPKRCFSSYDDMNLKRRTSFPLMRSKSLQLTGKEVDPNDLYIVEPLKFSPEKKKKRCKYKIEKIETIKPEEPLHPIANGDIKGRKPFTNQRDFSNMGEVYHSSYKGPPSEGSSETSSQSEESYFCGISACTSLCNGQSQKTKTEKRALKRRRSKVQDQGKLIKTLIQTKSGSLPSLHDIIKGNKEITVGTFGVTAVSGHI
# UniProt Q9HCH5: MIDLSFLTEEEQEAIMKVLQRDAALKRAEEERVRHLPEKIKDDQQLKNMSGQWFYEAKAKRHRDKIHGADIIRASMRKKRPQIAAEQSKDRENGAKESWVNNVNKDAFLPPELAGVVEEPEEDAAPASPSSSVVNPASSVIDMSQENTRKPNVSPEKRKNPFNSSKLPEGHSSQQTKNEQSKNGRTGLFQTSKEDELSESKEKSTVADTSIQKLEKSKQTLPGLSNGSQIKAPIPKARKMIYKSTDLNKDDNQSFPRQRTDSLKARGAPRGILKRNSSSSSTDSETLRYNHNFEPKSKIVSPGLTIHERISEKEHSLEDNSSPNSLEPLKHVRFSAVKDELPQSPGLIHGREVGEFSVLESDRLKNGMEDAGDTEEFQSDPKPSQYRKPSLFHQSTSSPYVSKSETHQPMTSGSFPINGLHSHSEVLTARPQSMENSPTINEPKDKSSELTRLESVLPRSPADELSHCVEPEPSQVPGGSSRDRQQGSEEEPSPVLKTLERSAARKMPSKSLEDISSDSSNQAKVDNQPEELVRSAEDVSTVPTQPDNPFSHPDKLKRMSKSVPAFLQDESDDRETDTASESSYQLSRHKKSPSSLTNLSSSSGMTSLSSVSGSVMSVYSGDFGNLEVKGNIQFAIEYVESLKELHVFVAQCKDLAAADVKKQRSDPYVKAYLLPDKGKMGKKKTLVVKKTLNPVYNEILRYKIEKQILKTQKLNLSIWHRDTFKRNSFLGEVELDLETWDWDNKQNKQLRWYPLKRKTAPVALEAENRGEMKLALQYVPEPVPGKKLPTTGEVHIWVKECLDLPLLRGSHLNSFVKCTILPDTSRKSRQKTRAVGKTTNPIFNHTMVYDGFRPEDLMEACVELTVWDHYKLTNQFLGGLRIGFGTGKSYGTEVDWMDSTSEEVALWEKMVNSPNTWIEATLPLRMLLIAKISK
# UniProt Q9C0K7: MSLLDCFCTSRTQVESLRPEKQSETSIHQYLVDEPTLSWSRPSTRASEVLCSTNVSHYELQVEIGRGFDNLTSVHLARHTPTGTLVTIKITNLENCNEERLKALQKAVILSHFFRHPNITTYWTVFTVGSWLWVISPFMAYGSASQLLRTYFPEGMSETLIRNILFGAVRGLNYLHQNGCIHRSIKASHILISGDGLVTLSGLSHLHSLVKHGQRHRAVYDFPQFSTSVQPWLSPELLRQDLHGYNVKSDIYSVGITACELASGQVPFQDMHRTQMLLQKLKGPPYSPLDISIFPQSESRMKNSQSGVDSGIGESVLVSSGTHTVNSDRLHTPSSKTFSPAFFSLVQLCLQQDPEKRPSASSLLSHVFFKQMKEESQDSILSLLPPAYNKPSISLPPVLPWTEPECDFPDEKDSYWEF
# UniProt O43761: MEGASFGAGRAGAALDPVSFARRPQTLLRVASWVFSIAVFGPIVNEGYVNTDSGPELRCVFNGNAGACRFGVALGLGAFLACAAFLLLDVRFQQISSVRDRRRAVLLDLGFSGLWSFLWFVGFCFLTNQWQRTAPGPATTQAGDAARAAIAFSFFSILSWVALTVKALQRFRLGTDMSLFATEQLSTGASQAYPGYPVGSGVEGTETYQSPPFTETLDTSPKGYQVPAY
# UniProt Q9Y6Q2: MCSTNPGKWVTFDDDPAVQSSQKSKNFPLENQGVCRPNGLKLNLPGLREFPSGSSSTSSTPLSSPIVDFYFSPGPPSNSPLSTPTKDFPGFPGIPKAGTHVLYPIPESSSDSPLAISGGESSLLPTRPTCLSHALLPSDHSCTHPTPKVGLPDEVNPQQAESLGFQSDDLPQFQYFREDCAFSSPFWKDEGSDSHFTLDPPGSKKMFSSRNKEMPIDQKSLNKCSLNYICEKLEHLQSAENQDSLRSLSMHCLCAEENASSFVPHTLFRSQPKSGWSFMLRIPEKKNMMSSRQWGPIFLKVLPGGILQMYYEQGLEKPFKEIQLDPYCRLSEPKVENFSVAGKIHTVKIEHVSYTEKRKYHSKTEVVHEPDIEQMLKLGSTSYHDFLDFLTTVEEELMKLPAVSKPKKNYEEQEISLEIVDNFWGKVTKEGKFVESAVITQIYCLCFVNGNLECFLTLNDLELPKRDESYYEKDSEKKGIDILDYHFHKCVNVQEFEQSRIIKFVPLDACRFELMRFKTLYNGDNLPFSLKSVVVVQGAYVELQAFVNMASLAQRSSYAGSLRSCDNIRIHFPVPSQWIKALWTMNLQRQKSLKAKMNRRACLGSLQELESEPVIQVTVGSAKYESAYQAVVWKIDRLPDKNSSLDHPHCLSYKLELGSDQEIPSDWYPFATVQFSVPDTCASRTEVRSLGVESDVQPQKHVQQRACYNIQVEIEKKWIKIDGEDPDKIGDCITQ
# UniProt O94804: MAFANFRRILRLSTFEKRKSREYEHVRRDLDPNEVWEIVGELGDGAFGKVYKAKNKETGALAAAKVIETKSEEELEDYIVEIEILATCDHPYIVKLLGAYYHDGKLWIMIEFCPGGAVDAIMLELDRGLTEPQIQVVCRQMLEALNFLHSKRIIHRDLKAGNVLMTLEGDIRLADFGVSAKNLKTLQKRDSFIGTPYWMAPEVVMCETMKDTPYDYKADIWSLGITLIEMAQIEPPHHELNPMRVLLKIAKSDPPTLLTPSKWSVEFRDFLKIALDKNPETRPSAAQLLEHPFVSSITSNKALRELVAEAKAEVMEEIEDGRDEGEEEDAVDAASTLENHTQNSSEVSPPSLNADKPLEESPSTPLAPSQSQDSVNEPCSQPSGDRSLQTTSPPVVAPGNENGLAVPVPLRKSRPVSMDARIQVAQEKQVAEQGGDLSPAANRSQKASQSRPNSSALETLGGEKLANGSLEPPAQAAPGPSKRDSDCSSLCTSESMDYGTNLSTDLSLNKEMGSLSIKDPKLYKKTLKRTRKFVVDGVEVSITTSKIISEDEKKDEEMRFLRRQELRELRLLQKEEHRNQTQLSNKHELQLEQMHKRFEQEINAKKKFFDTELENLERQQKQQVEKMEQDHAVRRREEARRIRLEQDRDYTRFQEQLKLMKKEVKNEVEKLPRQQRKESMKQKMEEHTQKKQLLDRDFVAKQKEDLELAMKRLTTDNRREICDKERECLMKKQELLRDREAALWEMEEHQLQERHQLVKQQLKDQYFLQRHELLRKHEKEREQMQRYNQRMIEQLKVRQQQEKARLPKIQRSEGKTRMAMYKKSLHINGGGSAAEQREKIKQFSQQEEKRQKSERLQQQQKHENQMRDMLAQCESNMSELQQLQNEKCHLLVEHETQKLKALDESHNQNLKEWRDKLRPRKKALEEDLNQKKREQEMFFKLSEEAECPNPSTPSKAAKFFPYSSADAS
# UniProt Q15572: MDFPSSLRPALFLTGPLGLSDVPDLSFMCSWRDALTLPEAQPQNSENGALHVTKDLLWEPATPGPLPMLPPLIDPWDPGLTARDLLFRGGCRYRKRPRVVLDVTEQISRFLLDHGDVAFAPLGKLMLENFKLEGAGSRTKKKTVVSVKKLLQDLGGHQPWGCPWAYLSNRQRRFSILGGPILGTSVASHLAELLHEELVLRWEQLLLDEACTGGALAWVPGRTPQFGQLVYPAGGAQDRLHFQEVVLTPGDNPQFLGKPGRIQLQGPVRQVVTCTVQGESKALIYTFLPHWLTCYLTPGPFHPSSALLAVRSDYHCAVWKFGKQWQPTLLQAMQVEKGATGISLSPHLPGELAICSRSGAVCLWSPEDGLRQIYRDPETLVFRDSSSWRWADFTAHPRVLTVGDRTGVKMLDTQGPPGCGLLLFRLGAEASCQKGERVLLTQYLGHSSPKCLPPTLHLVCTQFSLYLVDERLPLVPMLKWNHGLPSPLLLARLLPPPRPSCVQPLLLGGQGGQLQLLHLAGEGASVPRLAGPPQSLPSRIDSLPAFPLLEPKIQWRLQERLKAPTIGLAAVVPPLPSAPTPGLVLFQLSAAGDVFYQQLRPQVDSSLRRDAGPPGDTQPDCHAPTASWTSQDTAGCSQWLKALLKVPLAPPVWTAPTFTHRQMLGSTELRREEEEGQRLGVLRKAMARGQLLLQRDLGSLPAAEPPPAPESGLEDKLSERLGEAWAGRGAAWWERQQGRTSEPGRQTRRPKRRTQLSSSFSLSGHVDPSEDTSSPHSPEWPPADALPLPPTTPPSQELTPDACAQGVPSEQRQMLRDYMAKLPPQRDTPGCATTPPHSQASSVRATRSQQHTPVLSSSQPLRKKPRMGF
# UniProt Q6NVH7: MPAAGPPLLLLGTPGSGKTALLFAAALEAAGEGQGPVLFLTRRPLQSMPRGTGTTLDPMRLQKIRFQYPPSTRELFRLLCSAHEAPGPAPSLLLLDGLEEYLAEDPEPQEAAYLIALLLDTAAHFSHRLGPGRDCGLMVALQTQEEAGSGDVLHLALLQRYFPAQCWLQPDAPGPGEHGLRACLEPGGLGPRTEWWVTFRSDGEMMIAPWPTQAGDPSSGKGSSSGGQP
# UniProt Q9UEE5: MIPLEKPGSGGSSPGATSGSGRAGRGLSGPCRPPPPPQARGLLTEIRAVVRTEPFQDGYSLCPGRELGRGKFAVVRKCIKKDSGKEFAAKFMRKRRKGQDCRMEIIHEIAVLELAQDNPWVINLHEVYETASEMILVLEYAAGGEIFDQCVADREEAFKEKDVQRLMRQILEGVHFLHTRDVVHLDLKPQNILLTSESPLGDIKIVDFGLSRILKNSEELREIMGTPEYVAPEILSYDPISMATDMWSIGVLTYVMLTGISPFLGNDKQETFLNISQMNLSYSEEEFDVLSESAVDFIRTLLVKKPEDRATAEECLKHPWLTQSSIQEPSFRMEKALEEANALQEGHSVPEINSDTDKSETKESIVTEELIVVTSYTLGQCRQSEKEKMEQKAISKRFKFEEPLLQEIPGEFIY
# UniProt Q15573: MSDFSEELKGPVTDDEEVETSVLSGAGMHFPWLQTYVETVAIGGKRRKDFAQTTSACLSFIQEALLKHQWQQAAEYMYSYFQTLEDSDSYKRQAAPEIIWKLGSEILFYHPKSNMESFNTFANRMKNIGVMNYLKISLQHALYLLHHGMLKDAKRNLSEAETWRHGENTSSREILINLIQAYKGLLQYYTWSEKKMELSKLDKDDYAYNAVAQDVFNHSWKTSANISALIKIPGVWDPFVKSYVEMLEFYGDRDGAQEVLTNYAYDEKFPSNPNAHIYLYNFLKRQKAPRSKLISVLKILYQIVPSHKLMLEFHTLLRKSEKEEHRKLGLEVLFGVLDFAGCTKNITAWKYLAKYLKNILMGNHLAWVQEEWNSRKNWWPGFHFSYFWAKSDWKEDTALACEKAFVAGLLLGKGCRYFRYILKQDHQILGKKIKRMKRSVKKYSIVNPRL
# Some of the results follow.
# Assays:
# Assay in all cases: log2 fold change, soluble protein after heating vs DMSO (PISA); higher = thermal stabilisation; K562 lysate, 10 uM; active = over 0.2 and 3.5 SD of the protein, either way, in both replicates (recomputed)
# Tubastatin A = compound: CN1CCc2c(c3ccccc3n2Cc2ccc(C(=O)NO)cc2)C1 [Tubastatin A]
# Procedure, shortened: (§1)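 A 30 min treatment with 10 μM compound was applied to crude K562 extract at 1 mg/mL protein in PBS pH 7.4 with 1 mM MgCl2. Heating for 3 min spanned 48°C-58°C, after which aliquots were pooled, adjusted to 0.5% NP-40 at 4°C and spun at 21,000xg for 90 min. TMTpro 16plex LC-MS/MS of the supernatant, with channel sums equalised, gave values recorded as log-two fold change in thermal stability against solvent controls, from duplicates.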
# defactinib = compound: CNC(=O)c1ccc(Nc2ncc(C(F)(F)F)c(NCc3nccnc3N(C)S(C)(=O)=O)n2)cc1 [defactinib]
# Procedure, shortened: as §1
# encorafenib = compound: COC(=O)N[C@@H](C)CNc1nccc(-c2cn(C(C)C)nc2-c2cc(Cl)cc(NS(C)(=O)=O)c2F)n1 [encorafenib]
# Procedure, shortened: as §1
# [1] = compound: COC(=O)[C@H](CCSC)NC(=O)C1=C(C=C(C=C1)NC[C@H](CS)N)C2=CC=CC=C2
# Procedure, shortened: as §1
# crizotinib = compound: C[C@@H](Oc1cc(-c2cnn(C3CCNCC3)c2)cnc1N)c1c(Cl)ccc(F)c1Cl [crizotinib]
# Procedure, shortened: as §1
# tozasertib = compound: Cc1cc(Nc2cc(N3CCN(C)CC3)nc(Sc3ccc(NC(=O)C4CC4)cc3)n2)n[nH]1 [tozasertib]
# Procedure, shortened: as §1
# doramapimod = compound: Cc1ccc(-n2nc(C(C)(C)C)cc2NC(=O)Nc2ccc(OCCN3CCOCC3)c3ccccc23)cc1 [doramapimod]
# Procedure, shortened: as §1
# alvocidib = compound: CN1CC[C@H](c2c(O)cc(O)c3c(=O)cc(-c4ccccc4Cl)oc23)[C@H](O)C1 [alvocidib]
# Procedure, shortened: as §1
# [2] = compound: CNc1nc(-c2ccc3c(N)n[nH]c3c2)cc(N2C[C@@H](C(=O)NC3CCCCC3)CC[C@H]2C)n1
# Procedure, shortened: as §1
# [3] = compound: C[C@H](C1=CC=C(C=C1)C(=O)NC2=C3C=CNC3=NC=C2)N
# Procedure, shortened: as §1
# duvelisib = compound: C[C@H](Nc1ncnc2nc[nH]c12)c1cc2cccc(Cl)c2c(=O)n1-c1ccccc1 [duvelisib]
# Procedure, shortened: as §1
# gandotinib = compound: Cc1cc(Nc2cc(CN3CCOCC3)c3nc(C)c(Cc4ccc(Cl)cc4F)n3n2)n[nH]1 [gandotinib]
# Procedure, shortened: as §1
# [4] = compound: Cc1cccc(CC(=O)N2CCc3c2ccc(-c2cn(C)c4ncnc(N)c24)c3F)n1
# Procedure, shortened: as §1
# [5] = compound: CNC(=O)C1=CC=CC=C1NC2=NC(=NC=C2Cl)NC3=C(C=C(C=C3)N4CCOCC4)OC
# Procedure, shortened: as §1
# alisertib = compound: COc1cc(Nc2ncc3c(n2)-c2ccc(Cl)cc2C(c2c(F)cccc2OC)=NC3)ccc1C(=O)O [alisertib]
# Procedure, shortened: as §1
# gefitinib = compound: COc1cc2ncnc(Nc3ccc(F)c(Cl)c3)c2cc1OCCCN1CCOCC1 [gefitinib]
# Procedure, shortened: as §1
# [6] = compound: COc1cc2nc(-c3cc(F)ccc3O)nc(N[C@@H]3CNC[C@H]3C(C)(C)O)c2cc1OC
# Procedure, shortened: as §1
# lapatinib = compound: CS(=O)(=O)CCNCc1ccc(-c2ccc3ncnc(Nc4ccc(OCc5cccc(F)c5)c(Cl)c4)c3c2)o1 [lapatinib]
# Procedure, shortened: as §1
# pictilisib = compound: CS(=O)(=O)N1CCN(Cc2cc3nc(-c4cccc5[nH]ncc45)nc(N4CCOCC4)c3s2)CC1 [pictilisib]
# Procedure, shortened: as §1
# bafetinib = compound: Cc1ccc(NC(=O)c2ccc(CN3CC[C@H](N(C)C)C3)c(C(F)(F)F)c2)cc1Nc1nccc(-c2cncnc2)n1 [bafetinib]
# Procedure, shortened: as §1
target,measurement,setting,value
SUCO isoform 2 (UniProt Q9UBS9),log2 fold change,Tubastatin A,inactive: -0.086
same,log2 fold change,defactinib,inactive: -0.035
same,log2 fold change,encorafenib,inactive: 0.044
same,log2 fold change,[1],inactive: -0.065
same,log2 fold change,crizotinib,inactive: -0.016
same,log2 fold change,tozasertib,inactive: 0.051
same,log2 fold change,doramapimod,inactive: 0.089
STRN3 (UniProt H0YJT2),log2 fold change,alvocidib,inactive: 0.024
same,log2 fold change,[2],inactive: 0
same,log2 fold change,encorafenib,inactive: -0.014
same,log2 fold change,[1],inactive: 0.07
same,log2 fold change,[3],inactive: -0.087
same,log2 fold change,duvelisib,inactive: 0.16
same,log2 fold change,gandotinib,inactive: 0.111
same,log2 fold change,tozasertib,inactive: -0.149
same,log2 fold change,[4],inactive: 0.323
TADA2B (UniProt Q86TJ2),log2 fold change,[5],inactive: 0.063
same,log2 fold change,defactinib,inactive: -0.135
same,log2 fold change,[2],inactive: 0.017
same,log2 fold change,alisertib,inactive: 0.003
same,log2 fold change,gefitinib,inactive: 0.135
same,log2 fold change,crizotinib,inactive: 0.082
same,log2 fold change,duvelisib,inactive: 0.186
same,log2 fold change,doramapimod,inactive: -0.137
SUGCT isoform 3 (UniProt Q9HAC7),log2 fold change,[2],inactive: -0.153
same,log2 fold change,encorafenib,inactive: 0.083
same,log2 fold change,[1],inactive: -0.112
same,log2 fold change,duvelisib,inactive: 0.026
same,log2 fold change,tozasertib,inactive: -0.134
SYTL2 isoform 8 (UniProt Q9HCH5),log2 fold change,[2],inactive: 0.539
same,log2 fold change,[6],inactive: 0.257
same,log2 fold change,lapatinib,inactive: -0.069
same,log2 fold change,pictilisib,inactive: -0.094
same,log2 fold change,duvelisib,inactive: 0.037
same,log2 fold change,bafetinib,inactive: 0.188
SUPT20H isoform 3 (UniProt Q8NEM7),log2 fold change,Tubastatin A,inactive: 0.01
same,log2 fold change,[5],inactive: 0.419
same,log2 fold change,defactinib,inactive: -0.016
same,log2 fold change,[2],inactive: 0.414
same,log2 fold change,encorafenib,inactive: 0.061
same,log2 fold change,[1],inactive: -0.103
same,log2 fold change,alisertib,inactive: 0.088
same,log2 fold change,[6],inactive: 0.296
same,log2 fold change,gefitinib,inactive: -0.468
same,log2 fold change,lapatinib,inactive: -0.297
same,log2 fold change,pictilisib,inactive: 0.035
same,log2 fold change,crizotinib,inactive: -0.246
same,log2 fold change,duvelisib,inactive: -0.111
same,log2 fold change,tozasertib,inactive: -0.005
same,log2 fold change,doramapimod,inactive: -0.047
same,log2 fold change,bafetinib,inactive: -0.002
SURF2 (UniProt Q15527),log2 fold change,alvocidib,inactive: -0.02
same,log2 fold change,Tubastatin A,inactive: -0.276
same,log2 fold change,defactinib,inactive: 0.016
same,log2 fold change,[2],inactive: 0.013
same,log2 fold change,encorafenib,inactive: -0.001
same,log2 fold change,[1],active: -0.319
same,log2 fold change,alisertib,inactive: -0.005
same,log2 fold change,[6],inactive: 0.011
same,log2 fold change,gefitinib,inactive: -0.041
same,log2 fold change,lapatinib,inactive: -0.005
same,log2 fold change,pictilisib,inactive: -0.049
same,log2 fold change,crizotinib,inactive: -0.031
same,log2 fold change,[3],inactive: -0.008
same,log2 fold change,duvelisib,inactive: 0.014
same,log2 fold change,gandotinib,inactive: 0.092
same,log2 fold change,tozasertib,inactive: -0.061
same,log2 fold change,doramapimod,inactive: -0.018
same,log2 fold change,bafetinib,inactive: -0.055
same,log2 fold change,[4],inactive: 0.111
SUSD6 (UniProt Q92537),log2 fold change,alvocidib,inactive: 0
same,log2 fold change,[3],inactive: -0.07
same,log2 fold change,gandotinib,inactive: -0.032
same,log2 fold change,[4],inactive: -0.044
SUFU (UniProt Q9UMX1),log2 fold change,alvocidib,inactive: -0.032
same,log2 fold change,Tubastatin A,inactive: -0.039
same,log2 fold change,defactinib,inactive: 0.034
same,log2 fold change,[6],inactive: -0.159
same,log2 fold change,lapatinib,inactive: -0.163
same,log2 fold change,crizotinib,inactive: -0.028
same,log2 fold change,[3],inactive: -0.244
same,log2 fold change,gandotinib,inactive: 0.075
same,log2 fold change,doramapimod,inactive: -0.056
same,log2 fold change,[4],inactive: 0.023
STRADB (UniProt Q9C0K7),log2 fold change,[5],inactive: 0.419
SYNGR3 (UniProt O43761),log2 fold change,pictilisib,inactive: -0.052
same,log2 fold change,bafetinib,inactive: 0.146
SYNM (UniProt O15061),log2 fold change,alvocidib,inactive: -0.042
same,log2 fold change,encorafenib,inactive: 0.09
same,log2 fold change,[1],inactive: 0.015
same,log2 fold change,pictilisib,inactive: 0.043
same,log2 fold change,[3],inactive: -0.078
same,log2 fold change,gandotinib,inactive: 0.035
same,log2 fold change,tozasertib,inactive: -0.054
same,log2 fold change,bafetinib,inactive: 0.03
same,log2 fold change,[4],inactive: 0.086
STK35 (UniProt Q8TDR2),log2 fold change,[2],inactive: 0.057
same,log2 fold change,encorafenib,inactive: 0.023
same,log2 fold change,[1],inactive: -0.017
same,log2 fold change,[6],inactive: 0.021
same,log2 fold change,lapatinib,inactive: -0.059
same,log2 fold change,pictilisib,inactive: 0.015
same,log2 fold change,[3],inactive: -0.095
same,log2 fold change,duvelisib,inactive: -0.051
same,log2 fold change,gandotinib,inactive: 0.316
same,log2 fold change,tozasertib,inactive: 0.038
same,log2 fold change,bafetinib,inactive: -0.641
same,log2 fold change,[4],inactive: 0.003
STON1 isoform 2 (UniProt Q9Y6Q2),log2 fold change,Tubastatin A,inactive: 0.034
same,log2 fold change,[5],inactive: -0.011
same,log2 fold change,alisertib,inactive: -0.017
same,log2 fold change,[6],inactive: 0.096
same,log2 fold change,gefitinib,inactive: -0.163
same,log2 fold change,lapatinib,inactive: -0.128
STK10 (UniProt O94804),log2 fold change,Tubastatin A,inactive: 0.213
same,log2 fold change,[5],inactive: -0.06
same,log2 fold change,[2],inactive: -0.207
same,log2 fold change,pictilisib,inactive: -0.046
same,log2 fold change,crizotinib,inactive: -0.213
same,log2 fold change,duvelisib,inactive: 0.028
same,log2 fold change,doramapimod,inactive: -0.022
same,log2 fold change,bafetinib,inactive: -0.184
STK19 (UniProt P49842),log2 fold change,[2],inactive: -0.058
same,log2 fold change,alisertib,inactive: 0.048
same,log2 fold change,gefitinib,inactive: -0.174
same,log2 fold change,crizotinib,inactive: -0.031
same,log2 fold change,duvelisib,inactive: -0.128
same,log2 fold change,doramapimod,inactive: -0.141
TAF1C (UniProt Q15572),log2 fold change,alvocidib,inactive: 0.085
same,log2 fold change,Tubastatin A,inactive: -0.078
same,log2 fold change,defactinib,inactive: -0.079
same,log2 fold change,[2],inactive: -0.021
same,log2 fold change,encorafenib,inactive: -0.072
same,log2 fold change,[1],inactive: -0.067
same,log2 fold change,alisertib,inactive: 0.071
same,log2 fold change,gefitinib,inactive: -0.015
same,log2 fold change,pictilisib,inactive: 0.047
same,log2 fold change,crizotinib,inactive: -0.042
same,log2 fold change,[3],inactive: 0.045
same,log2 fold change,duvelisib,inactive: 0.044
same,log2 fold change,gandotinib,inactive: -0.056
same,log2 fold change,tozasertib,inactive: 0.034
same,log2 fold change,doramapimod,inactive: -0.1
same,log2 fold change,bafetinib,inactive: -0.069
same,log2 fold change,[4],inactive: -0.011
SWSAP1 (UniProt Q6NVH7),log2 fold change,Tubastatin A,inactive: -0.163
same,log2 fold change,[5],inactive: 0.066
same,log2 fold change,[2],inactive: -0.005
same,log2 fold change,alisertib,inactive: -0.191
same,log2 fold change,gefitinib,inactive: 0.044
same,log2 fold change,duvelisib,inactive: 0.098
STK17A (UniProt Q9UEE5),log2 fold change,alvocidib,inactive: 0.182
same,log2 fold change,alisertib,inactive: -0.291
same,log2 fold change,gefitinib,inactive: -0.141
same,log2 fold change,[3],inactive: 0.315
same,log2 fold change,gandotinib,inactive: -0.001
same,log2 fold change,[4],inactive: -0.197
SUN1 isoform 9 (UniProt O94901),log2 fold change,Tubastatin A,inactive: 0.067
STIMATE (UniProt Q86TL2),log2 fold change,Tubastatin A,inactive: 0
TADA2A (UniProt O75478),log2 fold change,Tubastatin A,inactive: -0.14
same,log2 fold change,[5],inactive: -0.099
same,log2 fold change,alisertib,inactive: 0.02
same,log2 fold change,gefitinib,inactive: -0.05
same,log2 fold change,crizotinib,inactive: 0
same,log2 fold change,doramapimod,inactive: -0.039
STK26 isoform 3 (UniProt Q9P289),log2 fold change,[2],inactive: 0.058
same,log2 fold change,encorafenib,inactive: 0.034
same,log2 fold change,[1],inactive: 0.001
same,log2 fold change,crizotinib,inactive: 0.095
same,log2 fold change,duvelisib,inactive: 0.008
same,log2 fold change,tozasertib,inactive: -0.001
same,log2 fold change,doramapimod,inactive: -0.416
TAF1A (UniProt Q15573),log2 fold change,defactinib,inactive: 0.263
same,log2 fold change,alisertib,inactive: 0.15
same,log2 fold change,gefitinib,inactive: 0.114

# Given with tabs: entries from further up
target	measurement	setting	value
SUPT20H isoform 3 (UniProt Q8NEM7)	log2 fold change	defactinib	inactive: -0.016
same	log2 fold change	bafetinib	inactive: -0.002
SURF2 (UniProt Q15527)	log2 fold change	defactinib	inactive: 0.016
same	log2 fold change	crizotinib	inactive: -0.031
STK10 (UniProt O94804)	log2 fold change	doramapimod	inactive: -0.022

# In a second layout: entries from further up.
target | measurement | setting | value
TAF1C (UniProt Q15572) | log2 fold change | bafetinib | inactive: -0.069
same | log2 fold change | [4] | inactive: -0.011
